PubChem BioAssay AID1259308, NCATS | 2017

Test: 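Genes whose loss raises luciferase production in HEK293 cells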 (primary screen)
Cells: human HEK293 embryonic kidney cells stably expressing firefly luciferase (HEK-CMV-Luc2-Hygro)
Knock-down reagent: single siRNA against human genes, 0.8 pmol siRNA per well
Duration: 72 h
Read-out: 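Luciferase light (ONE-Glo) measured on one replicate plate set and viability (CellTiter-Glo) on the other, scaled to a negative control siRNA, with robust z-scores and luciferase per cell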
Reading the numbers: total luciferase, z-score: higher = more reporter protein produced
Active means: 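An siRNA counts as active if its total luciferase robust z-score exceeds 3; genes with two or more such siRNAs out of three were retested with fresh siRNAs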
Calls: active = raised luciferase; inactive = no rise
This is a random part of about 59,000 reagents. Over the whole deposit, about 1,510 (2.6%) got an active call. 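Calls use total luciferase alone and ignore viability, so some active siRNAs may act by altering cell number.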 Unmarked entries are inactive. The numbers tell different reagents against one gene apart. Further read-outs or replicates are left out here.

After knock-down of MFSD12 (major facilitator superfamily domain containing 12) #1 the results were total luciferase, z-score -0.217. Knock-down of MFSD12 (major facilitator superfamily domain containing 12) #2 came out at: total luciferase, z-score -1.55. MFSD12 (major facilitator superfamily domain containing 12) #3 gave total luciferase, z-score -1.57. Knock-down of SLC25A25 #1 came out at: total luciferase, z-score 0.509. Depletion of SLC25A25 #2 came out at: total luciferase, z-score 0.234. SLC25A25 #3 showed total luciferase, z-score -0.566.

Silencing of LINC02027 (long independently transcribed non-coding RNA 2027) #1 gave: total luciferase, z-score -0.319. Against LINC02027 (long independently transcribed non-coding RNA 2027) #2 the deposit lists total luciferase, z-score 0.304. Depletion of LINC02027 (long independently transcribed non-coding RNA 2027) #3 resulted in: total luciferase, z-score 2.18. Against OR2T11 (olfactory receptor family 2 subfamily T member 11) #1, the entry reads total luciferase, z-score -0.0181. OR2T11 (olfactory receptor family 2 subfamily T member 11) #2 scored total luciferase, z-score 2.93. OR2T11 (olfactory receptor family 2 subfamily T member 11) #3 gave total luciferase, z-score -2.6.

Silencing of NOSIP (nitric oxide synthase interacting protein) #1 gave: total luciferase, z-score -0.011. NOSIP (nitric oxide synthase interacting protein) #2 scored total luciferase, z-score 1.46. Silencing of NOSIP (nitric oxide synthase interacting protein) #3 resulted in: total luciferase, z-score -0.914. After knock-down of OR2S2 (olfactory receptor family 2 subfamily S member 2) #1, the record shows total luciferase, z-score -0.781. Silencing of OR2S2 (olfactory receptor family 2 subfamily S member 2) #2 gave: total luciferase, z-score -0.621. Depletion of OR2S2 (olfactory receptor family 2 subfamily S member 2) #3 gave: total luciferase, z-score 0.0505.

Reformatted: entries from further up.
target gene | siRNA no. | total luciferase, z-score
MFSD12 (major facilitator superfamily domain containing 12) | 2 | -1.55
MFSD12 (major facilitator superfamily domain containing 12) | 3 | -1.57
SLC25A25 | 1 | 0.509

Continued.
For RPL36AP31 (ribosomal protein L36a pseudogene 31) #1, the entry reads total luciferase, z-score -0.0807. With knock-down of RPL36AP31 (ribosomal protein L36a pseudogene 31) #2, the screen gave total luciferase, z-score 0.595. RPL36AP31 (ribosomal protein L36a pseudogene 31) #3 scored total luciferase, z-score 1.19. With knock-down of SMIM26 (small integral membrane protein 26) #1, the screen gave total luciferase, z-score -0.224. Against SMIM26 (small integral membrane protein 26) #2, the entry reads total luciferase, z-score 1.59. SMIM26 (small integral membrane protein 26) #3 gave total luciferase, z-score -0.384.

For C1QTNF1 (C1q and TNF related 1) #1, the entry reads total luciferase, z-score -0.604. For C1QTNF1 (C1q and TNF related 1) #2, the entry reads total luciferase, z-score -0.954. Silencing of C1QTNF1 (C1q and TNF related 1) #3 gave: total luciferase, z-score 0.436. Depletion of STK32B (serine/threonine kinase 32B) #1 gave: total luciferase, z-score 0.31. Knock-down of STK32B (serine/threonine kinase 32B) #2 came out at: total luciferase, z-score -0.996. STK32B (serine/threonine kinase 32B) #3 showed total luciferase, z-score -1.53.

Against INSR (insulin receptor) #1, the entry reads total luciferase, z-score -1.39. With knock-down of INSR (insulin receptor) #2 the results were total luciferase, z-score -0.0334. Depletion of INSR (insulin receptor) #3 came out at: total luciferase, z-score -0.818.
